This note sets out measurements from article PMC6842489.

The chains behind the UniProt entries cited, without tags or fusion partners.
UniProt Q9Y572: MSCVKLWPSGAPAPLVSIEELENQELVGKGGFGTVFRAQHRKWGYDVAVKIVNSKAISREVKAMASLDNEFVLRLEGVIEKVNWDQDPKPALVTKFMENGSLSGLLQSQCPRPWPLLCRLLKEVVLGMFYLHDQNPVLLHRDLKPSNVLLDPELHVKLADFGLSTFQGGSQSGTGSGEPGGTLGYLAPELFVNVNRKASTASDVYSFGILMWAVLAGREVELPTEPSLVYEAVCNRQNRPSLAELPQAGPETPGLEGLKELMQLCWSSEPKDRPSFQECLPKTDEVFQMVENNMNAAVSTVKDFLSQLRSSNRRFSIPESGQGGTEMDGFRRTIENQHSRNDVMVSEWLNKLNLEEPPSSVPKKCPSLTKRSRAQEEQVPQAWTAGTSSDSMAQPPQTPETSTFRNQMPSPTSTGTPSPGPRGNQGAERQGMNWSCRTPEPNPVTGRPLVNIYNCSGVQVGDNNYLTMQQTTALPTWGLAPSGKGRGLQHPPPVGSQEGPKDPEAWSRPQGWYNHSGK
UniProt Q13546: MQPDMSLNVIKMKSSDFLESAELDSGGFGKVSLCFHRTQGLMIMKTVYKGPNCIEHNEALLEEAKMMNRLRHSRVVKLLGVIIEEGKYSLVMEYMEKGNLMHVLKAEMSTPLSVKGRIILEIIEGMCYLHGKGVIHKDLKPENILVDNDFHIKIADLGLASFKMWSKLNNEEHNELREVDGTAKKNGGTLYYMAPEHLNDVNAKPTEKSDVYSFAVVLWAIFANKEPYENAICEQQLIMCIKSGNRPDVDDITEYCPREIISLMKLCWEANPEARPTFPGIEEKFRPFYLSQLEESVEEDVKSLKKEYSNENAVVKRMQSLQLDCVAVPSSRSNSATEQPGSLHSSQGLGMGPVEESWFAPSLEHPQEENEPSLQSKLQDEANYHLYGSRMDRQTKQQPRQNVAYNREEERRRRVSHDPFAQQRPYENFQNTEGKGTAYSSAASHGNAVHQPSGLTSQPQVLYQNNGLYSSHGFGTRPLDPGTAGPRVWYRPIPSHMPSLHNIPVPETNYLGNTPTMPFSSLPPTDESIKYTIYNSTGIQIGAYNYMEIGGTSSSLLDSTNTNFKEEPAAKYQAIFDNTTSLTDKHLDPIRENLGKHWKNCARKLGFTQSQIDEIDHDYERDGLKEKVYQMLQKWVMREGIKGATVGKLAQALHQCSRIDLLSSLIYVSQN

Assay [1] deals with receptor interacting protein 3 (human (endogenous in HT29)) (UniProt Q9Y572). The assay can be described thus: co-IP; lysate of HT29 cells exposed to 10 Gy X-ray; anti-RIP1 or anti-RIP3 antibodies with protein A/G agarose beads overnight at 4 °C; beads washed at least five times with lysis buffer; western blot. Background: In western blotting, separated proteins are transferred to a membrane and probed.

The target is the same in assay [2]. The assay can be described thus: co-IP; as a1, but HT29 cells pre-treated with Nec-1 (50 μM) for 12 h before 10 Gy X-ray.

No constants are given. Whether binding was seen depends on the method and setting. In cells and extracts the contact can be indirect. Some entries that bind do so weakly or less than the wild type.

As to “receptor interacting protein 1 (from UniProt Q13546 1-671)”, the binding entry in assay [1] is given as “binds”; in assay [2] it was “no binding (condition: cells pre-treated with 50 μM Nec-1)”.
